Reference: article PMC9083330, “An Efficient Evaluation System Accelerates α-Helical Antimicrobial Peptide Discovery and Its Application to Global Human Genome Mining” (Frontiers in Microbiology, 2022)
≈ marks a conversion by molar mass, not a printed value.

Key:
[1] = test system: Pseudomonas aeruginosa (CMCC10104); assay: MIC, broth microdilution; settings: CMCC10104, read-out: MIC, 4. P. aeruginosa (CMCC10104)
[2] = test system: Enterococcus faecium (VRE204) (vancomycin-resistant strain); assay: MIC, broth microdilution; settings: read-out: MIC, 3. E. faecium (VRE204) (vancomycin-resistant strain)

With `C[C@H]1COc2c(N3CCN(C)CC3)c(F)cc3c(=O)c(C(=O)O)cn1c23` [Levofloxacin] the MIC [1] was 0.5 µg/mL (≈ 1.38 µM).

With `CN[C@H](CC(C)C)C(=O)N[C@H]1C(=O)N[C@@H](CC(N)=O)C(=O)N[C@H]2C(=O)N[C@H]3C(=O)N[C@H](C(=O)N[C@H](C(=O)O)c4cc(O)cc(O)c4-c4cc3ccc4O)[C@H](O)c3ccc(c(Cl)c3)Oc3cc2cc(c3O[C@@H]2O[C@H](CO)[C@@H](O)[C@H](O)[C@H]2O[C@H]2C[C@](C)(N)[C@H](O)[C@H](C)O2)Oc2ccc(cc2Cl)[C@H]1O` [Vancomycin] the MIC [2] was 32 µg/mL (≈ 22.1 µM).
